The record followed here is patent US20250376519A1.

Chains of the proteins cited; added tags and fusions are not shown. Lines headed by an entry give the natural chain unless they say otherwise; changes in a name come on top.
UniProt Q9NYJ7: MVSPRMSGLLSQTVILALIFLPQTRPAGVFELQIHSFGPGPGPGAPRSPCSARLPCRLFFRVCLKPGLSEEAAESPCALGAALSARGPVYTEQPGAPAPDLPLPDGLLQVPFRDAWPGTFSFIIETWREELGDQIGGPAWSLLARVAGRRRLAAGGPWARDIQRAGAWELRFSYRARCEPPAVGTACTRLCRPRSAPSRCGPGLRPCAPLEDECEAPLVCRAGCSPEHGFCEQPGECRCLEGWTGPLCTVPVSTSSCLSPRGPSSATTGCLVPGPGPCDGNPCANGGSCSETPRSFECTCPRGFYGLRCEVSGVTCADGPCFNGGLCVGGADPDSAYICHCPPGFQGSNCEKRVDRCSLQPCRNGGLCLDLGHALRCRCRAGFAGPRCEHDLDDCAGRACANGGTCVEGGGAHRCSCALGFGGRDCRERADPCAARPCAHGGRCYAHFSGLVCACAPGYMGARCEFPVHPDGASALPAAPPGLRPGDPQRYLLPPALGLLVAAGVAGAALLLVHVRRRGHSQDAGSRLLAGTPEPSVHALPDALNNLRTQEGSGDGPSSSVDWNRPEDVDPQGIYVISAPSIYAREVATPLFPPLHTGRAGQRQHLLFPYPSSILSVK

These are yes or no findings as the source states them, for the method shown. Some results given as binding are weak or reduced against the parent protein; the word gives no strength.

The target of the experiment is human DLL3 on cells (human) (UniProt Q9NYJ7). Put plainly: flow cytometry.

B1: hu98L1H1 (antibody, human IgG1, kappa, V domains shown)
VH: EVQLVESGGGLVQPGGSLRLSCAASGFTFSDYGIHWVRQAPGKGLEWVAYISSGGYTIYYADTVKGRFTISRDNAKNSLYLQMNSLRAEDTAVYYCARGDYDDIFYTMDYWGQGTTVTVSS
VL: DIQMTQSPSSLSASVGDRVTITCRASRDITKFLNWYQQKPGKAPKLLIYYTSRLHSGVPSRFSGSGSGTDFTLTISSLQPEDFATYYCQQGNTLPWTFGGGTKVEIKR
Take B1: the binding result is listed as “binds”.

B2: hu98L3H5 (antibody, human IgG1, kappa, V domains shown)
VH: EVQLVESGGGLVQPGGSLRLSCAASGFTFSDYGMHWVRQAPGKGLEWVAYISSGGYTSYYADTVKGRFTISRDNAKNSLYLQMNSLRAEDTAVYYCARGDYEDIFYTMDYWGQGTTVTVSS
VL: DIQMTQSPSSLSASVGDRVTITCRASRDITKFLNWYQQKPGGAVKLLIYYTSRLHSGVPSRFSGSGSGTDYTLTISSLQPEDFATYYCQQGNTLPWTFGGGTKVEIKR
As for B2, the binding result is given as “binds”.

B3: hu98L2H2 (antibody, human IgG1, kappa, V domains shown)
VH: EVQLVESGGGLVQPGGSLRLSCAASGFTFSDYGIHWVRQAPGKGLEWVAYISSGGYTIYYADTVKGRFTISRDNAKNSLYLQMNSLRAEDTAVYYCARGDYEDIFYTMDYWGQGTTVTVSS
VL: DIQMTQSPSSLSASVGDRVTITCRASRDITKFLNWYQQKPGKAVKLLIYYTSRLHSGVPSRFSGSGSGTDYTLTISSLQPEDFATYYCQQGNTLPWTFGGGTKVEIKR
Turning to B3, the binding result is given as “binds”.

B4: hu98L3H2 (antibody, human IgG1, kappa, V domains shown)
VH: EVQLVESGGGLVQPGGSLRLSCAASGFTFSDYGIHWVRQAPGKGLEWVAYISSGGYTIYYADTVKGRFTISRDNAKNSLYLQMNSLRAEDTAVYYCARGDYEDIFYTMDYWGQGTTVTVSS
VL: DIQMTQSPSSLSASVGDRVTITCRASRDITKFLNWYQQKPGGAVKLLIYYTSRLHSGVPSRFSGSGSGTDYTLTISSLQPEDFATYYCQQGNTLPWTFGGGTKVEIKR
B4: the binding result is given as “binds”.

B5: hu98L3H4 (antibody, human IgG1, kappa, V domains shown)
VH: EVQLVESGGGLVQPGGSLRLSCAASGFTFSDYGIHWVRQAPGKGLEWVAYISSGGYTSYYADTVKGRFTISRDNAKNSLYLQMNSLRAEDTAVYYCARGDYEDIFYTMDYWGQGTTVTVSS
VL: DIQMTQSPSSLSASVGDRVTITCRASRDITKFLNWYQQKPGGAVKLLIYYTSRLHSGVPSRFSGSGSGTDYTLTISSLQPEDFATYYCQQGNTLPWTFGGGTKVEIKR
As for B5, the binding entry is “binds”.

B6: hu98L2H1 (antibody, human IgG1, kappa, V domains shown)
VH: EVQLVESGGGLVQPGGSLRLSCAASGFTFSDYGIHWVRQAPGKGLEWVAYISSGGYTIYYADTVKGRFTISRDNAKNSLYLQMNSLRAEDTAVYYCARGDYDDIFYTMDYWGQGTTVTVSS
VL: DIQMTQSPSSLSASVGDRVTITCRASRDITKFLNWYQQKPGKAVKLLIYYTSRLHSGVPSRFSGSGSGTDYTLTISSLQPEDFATYYCQQGNTLPWTFGGGTKVEIKR
B6: the binding entry was “binds”.

B7: hu98L3H1 (antibody, human IgG1, kappa, V domains shown)
VH: EVQLVESGGGLVQPGGSLRLSCAASGFTFSDYGIHWVRQAPGKGLEWVAYISSGGYTIYYADTVKGRFTISRDNAKNSLYLQMNSLRAEDTAVYYCARGDYDDIFYTMDYWGQGTTVTVSS
VL: DIQMTQSPSSLSASVGDRVTITCRASRDITKFLNWYQQKPGGAVKLLIYYTSRLHSGVPSRFSGSGSGTDYTLTISSLQPEDFATYYCQQGNTLPWTFGGGTKVEIKR
Regarding B7, the binding entry is given as “binds”.
